Data reported in patent US20240391940A1, “FUSED RING-CONTAINING COMPOUND, APPLICATION THEREOF, AND COMPOSITION CONTAINING SAME” (GenEros Biopharma Ltd., priority 2020, published 2024).
Where “and” joins values, the source holds several entries; their conditions need not be identical. Identical values can stand only once. This continues a long series; more values of the same kind are listed elsewhere.

Test system: adjuvant arthritis (AIA) rat model
Test: Rat AIA (adjuvant arthritis) model
Format: in vivo, Lewis rats
Conditions: AIA rats
[1] = day 21, 10 mg/kg daily from day 9, individual animals
[2] = day 22, 10 mg/kg daily from day 9, individual animals
[3] = day 23, 10 mg/kg daily from day 9, individual animals

| Compound | body weight (day 17, 10 mg/kg daily from day 9, individual animals) | body weight (day 18, 10 mg/kg daily from day 9, individual animals) | body weight (day 19, 10 mg/kg daily from day 9, individual animals) | body weight (day 20, 10 mg/kg daily from day 9, individual animals) | body weight [1] | body weight [2] | body weight [3] |
| --- | --- | --- | --- | --- | --- | --- | --- |
| O=C(Cc1ccc2ncccc2c1)N1CCC(n2c(=O)[nH]c3cccc(C(F)(F)F)c32)CC1 [GEN1-117, 1-(1-(2-(Quinolin-6-yl)acetyl)piperidin-4-yl)-7-(trifluoromethyl)-1H-benzo[d]imidazol-2(3H)-one] | 160 g and 161 g and 189 g and 180 g (2×) and 179 g and 184 g and 150 g | 177 g and 178 g and 156 g and 190 g (3×) and 166 g and 165 g and 186 g and 187 g (2×) and 150 g | 184 g and 176 g (2×) and 160 g and 193 g (2×) and 173 g (2×) and 186 g (2×) and 192 g and 155 g | 190 g and 188 g (2×) and 160 g and 191 g and 182 g and 185 g and 199 g and 184 g and 183 g and 187 g and 152 g | 196 g and 188 g and 161 g and 200 g and 192 g and 179 g and 183 g and 197 g and 193 g and 20 g and 195 g and 153 g | 202 g and 198 g and 162 g and 213 g and 203 g and 176 g and 197 g (2×) and 207 g and 211 g and 193 g and 154 g | 207 g and 198 g and 160 g and 222 g and 215 g and 188 g and 210 g and 214 g and 205 g and 217 g and 195 g and 153 g |
